# Experimental data taken from patent publication US20240309093A1.
# Results are given in words; binding and its absence hold for the method and conditions named. A result given as binding can be weak or reduced; the word gives no strength. Where a sequence is shown, tags or fusion partners need not be part of it.
# Molecular target: recombinant monkey PD-1-his protein (monkey)
# Assay: ELISA; PD-1-his coated 2 µg/mL, anti-human IgG-HRP
binder,measurement,value
"MHPD1-A Fc (Fc fusion, not shown: a dimerising Fc or GST) QVQLVESGGGSVQVGGSLTLSCAASGSDPSIYAMGWFRQAPGKEHEFVAGIGWSAATTYYADSVKGRFGISRDNTKNTVALLMNSLKPEDTAIYYCAADLDHSGFDYWGQGTQVTVSS",binding,binds
